Test results reported in publication PMC4958294.
These are yes or no findings as the source states them, for the method shown. Binding seen in cells or lysates may run through a third protein. Some binding calls cover weakened binding; strength is not graded here. Sequences can lack the tags named with a protein. One block for each binder: values may come before it.

What was measured:
[1] = molecular target: T1, GFP–CT3 (Gin4 residues 451–750, N-terminal GFP tag) (Candida albicans) (UniProt Q59W62); assay: co-IP; GFP-tagged Gin4 proteins precipitated with anti-GFP beads from lysates of log-phase C. albicans yeast cells coexpressing Cdc14–Myc; western blot for Myc and GFP; GIN4-ON (Fig. 6B), GIN4-ON and GIN4-OFF (Fig. S4B, S4C)
T1 sequence: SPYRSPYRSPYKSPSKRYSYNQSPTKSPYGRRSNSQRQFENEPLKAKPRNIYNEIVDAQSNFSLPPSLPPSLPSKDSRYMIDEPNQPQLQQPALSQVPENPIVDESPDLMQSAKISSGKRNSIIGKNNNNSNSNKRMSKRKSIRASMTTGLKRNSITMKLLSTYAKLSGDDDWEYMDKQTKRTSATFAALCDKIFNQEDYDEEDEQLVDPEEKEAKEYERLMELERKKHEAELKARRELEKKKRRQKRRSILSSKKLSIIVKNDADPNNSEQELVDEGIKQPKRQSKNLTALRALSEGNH

[2] = molecular target: T2, GFP–CT3.3 (Gin4 residues 551–650, N-terminal GFP tag) (Candida albicans) (UniProt Q59W62); assay: as above
T2 sequence: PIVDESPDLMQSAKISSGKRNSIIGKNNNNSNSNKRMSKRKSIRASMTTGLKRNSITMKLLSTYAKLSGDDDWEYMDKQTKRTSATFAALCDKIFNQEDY

[3] = molecular target: T3, GFP–Gin4 (Candida albicans Gin4, N-terminal GFP tag) (Candida albicans) (UniProt Q59W62); assay: as above
T3 sequence: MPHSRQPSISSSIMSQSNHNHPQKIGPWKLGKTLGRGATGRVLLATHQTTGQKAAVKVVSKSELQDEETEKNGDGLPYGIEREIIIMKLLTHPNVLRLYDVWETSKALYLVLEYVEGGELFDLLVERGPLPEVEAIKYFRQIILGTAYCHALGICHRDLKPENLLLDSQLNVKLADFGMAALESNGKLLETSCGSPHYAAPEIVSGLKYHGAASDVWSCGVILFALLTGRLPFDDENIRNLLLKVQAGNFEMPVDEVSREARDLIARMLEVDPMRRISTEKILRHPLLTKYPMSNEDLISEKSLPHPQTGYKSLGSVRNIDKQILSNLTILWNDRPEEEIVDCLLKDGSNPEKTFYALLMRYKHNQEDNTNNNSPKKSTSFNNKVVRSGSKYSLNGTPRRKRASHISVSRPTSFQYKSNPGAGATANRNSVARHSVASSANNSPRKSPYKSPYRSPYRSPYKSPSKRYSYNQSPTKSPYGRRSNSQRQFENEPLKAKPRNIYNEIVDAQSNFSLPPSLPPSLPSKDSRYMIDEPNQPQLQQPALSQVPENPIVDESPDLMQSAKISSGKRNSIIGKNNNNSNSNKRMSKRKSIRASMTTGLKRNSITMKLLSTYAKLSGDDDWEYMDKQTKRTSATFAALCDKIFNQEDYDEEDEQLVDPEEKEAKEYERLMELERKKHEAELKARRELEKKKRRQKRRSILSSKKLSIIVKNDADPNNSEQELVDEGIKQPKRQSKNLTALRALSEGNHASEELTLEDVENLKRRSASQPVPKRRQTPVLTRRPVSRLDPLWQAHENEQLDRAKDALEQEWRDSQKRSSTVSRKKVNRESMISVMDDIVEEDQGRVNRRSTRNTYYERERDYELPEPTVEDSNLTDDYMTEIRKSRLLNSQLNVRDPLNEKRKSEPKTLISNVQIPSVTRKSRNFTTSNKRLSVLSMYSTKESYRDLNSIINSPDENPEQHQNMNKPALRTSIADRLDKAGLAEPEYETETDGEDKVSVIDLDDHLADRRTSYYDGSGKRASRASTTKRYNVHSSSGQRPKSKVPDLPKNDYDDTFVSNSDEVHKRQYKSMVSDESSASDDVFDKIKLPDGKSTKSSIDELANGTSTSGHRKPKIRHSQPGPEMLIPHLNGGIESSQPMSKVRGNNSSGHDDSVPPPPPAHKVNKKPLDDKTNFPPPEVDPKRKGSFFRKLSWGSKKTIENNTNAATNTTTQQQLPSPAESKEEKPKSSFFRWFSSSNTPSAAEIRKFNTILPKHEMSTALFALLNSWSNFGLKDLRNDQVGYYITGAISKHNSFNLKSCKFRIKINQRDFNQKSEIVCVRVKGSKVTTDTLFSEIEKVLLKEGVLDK

[4] = molecular target: T4, GFP–Gin4^CT1Δ (Gin4 lacking CT1, residues 1051–1349; N-terminal GFP tag) (Candida albicans) (UniProt Q59W62); assay: as above
T4 sequence: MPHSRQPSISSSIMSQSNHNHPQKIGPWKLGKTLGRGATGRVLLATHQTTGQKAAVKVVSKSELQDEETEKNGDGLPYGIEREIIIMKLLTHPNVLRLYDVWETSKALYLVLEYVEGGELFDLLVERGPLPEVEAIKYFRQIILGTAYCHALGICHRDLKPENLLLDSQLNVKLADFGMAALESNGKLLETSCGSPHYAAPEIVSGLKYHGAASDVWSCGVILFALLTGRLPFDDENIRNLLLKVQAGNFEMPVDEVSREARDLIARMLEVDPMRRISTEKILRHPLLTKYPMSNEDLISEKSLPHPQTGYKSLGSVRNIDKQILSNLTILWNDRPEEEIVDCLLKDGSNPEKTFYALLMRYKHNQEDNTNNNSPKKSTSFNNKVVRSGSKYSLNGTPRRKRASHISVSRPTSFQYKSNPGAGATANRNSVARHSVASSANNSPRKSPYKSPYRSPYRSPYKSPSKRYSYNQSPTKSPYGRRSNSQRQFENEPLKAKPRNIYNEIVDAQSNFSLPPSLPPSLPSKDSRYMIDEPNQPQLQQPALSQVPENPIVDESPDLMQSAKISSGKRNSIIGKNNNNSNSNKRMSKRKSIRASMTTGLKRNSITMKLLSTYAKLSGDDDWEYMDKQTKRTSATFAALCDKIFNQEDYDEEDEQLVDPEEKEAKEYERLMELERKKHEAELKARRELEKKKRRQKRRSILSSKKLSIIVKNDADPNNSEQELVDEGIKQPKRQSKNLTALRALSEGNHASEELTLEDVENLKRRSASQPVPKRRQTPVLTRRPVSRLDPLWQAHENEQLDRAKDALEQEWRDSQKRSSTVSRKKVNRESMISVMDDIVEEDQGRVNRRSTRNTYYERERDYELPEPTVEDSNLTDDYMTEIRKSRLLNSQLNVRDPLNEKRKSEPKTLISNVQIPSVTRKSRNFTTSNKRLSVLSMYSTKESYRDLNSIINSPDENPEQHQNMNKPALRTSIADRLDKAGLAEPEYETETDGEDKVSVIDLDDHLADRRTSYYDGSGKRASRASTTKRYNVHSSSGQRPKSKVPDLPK

[5] = molecular target: T5, Gin4–GFP (Gin4 with GFP, expressed from its endogenous promoter) (Candida albicans) (UniProt Q59W62); assay: co-IP; Gin4–GFP immunoprecipitated (GFP) from WT and cdc14Δ/Δ C. albicans cells that hold untagged and GFP-tagged Gin4, at timed intervals after release from stationary phase; western blot for PScdk and GFP
T5 sequence (chain, CDK-phosphorylated serine residues (detected with the PScdk antibody)): T3 sequence

- binding [1]: binds
- binding [2]: binds
- binding [3]: binds
- binding [4]: binds
B1: Cdc14–Myc (phosphatase Cdc14, C-terminal Myc tag) (enzyme, UniProt Q59NH8 1-542)
chain: MHSSSVHVPLIEFLKNRIYLGAYDHHKRDTEDLAYFTVEDALPYNAFYMDFGPLNIGHLYRFAVLLHKKLNEDSTQGKGLVIYSSTSPKERANLACLLCCYMILLQNWAPHQVLQPIAQITPPLQAFRDAGYSSADYEITIQDVVYAMWRAKERGMIDLAKFDLDEYEQYERVDQGDFNVISKDFIAFASPQQSKRGGLNEPFQKVLEYFVENNVQLVVRLNSHLYDAKEFTKRNIKHIDMIFDDGTCPTLEYVQKFIGAAECIINKGGKIAVHCKAGLGRTGCLIGAHLIYTHGFTANECIAYMRMIRPGMVVGPQQHWLYLHHDDFRSWRHTMIVDNRPDPLIGNLFPLCSYEDYKQRLKEAKRKERLQLQQQLTSPLADSSVINTPIRRRKVSGALASKIQTVVPIESPGQPRKYFEDSEDIDEVEMVNNSDDENTMQDIIQSSPARYDSVTPKTKDNSDWRVLRSISTNNVSSQQSIHIIKTTTTKTVNETLSSPPGTSPTNVLRVSKARSKNRIASGNSQTSRAHSGGVRKLSGKKH

- binding [5]: binds
B2: untagged Gin4 (protein, UniProt Q59W62 1-1349)
chain: T3 sequence
modifications: CDK-phosphorylated serine residues (detected with the PScdk antibody)
